According to patent publication EP0305086A2, “Antibiotic A80577 and process for its production” (ELI LILLY AND COMPANY, priority 1987, dated 1989):
At least one structure is not confirmed: it was looked up by name or label, or the drawing left a doubt.

Tested on: Actinomadura verrucosospora A80577
Experiment: Resistance of the producing culture to antibiotic sensitivity discs on seeded ISP No. 2 agar plates
Format: cell-based
Conditions: disc 30 µg; culture A80577 on ISP No. 2 agar
Procedure: Resistance to antibiotics was measured by padding antibiotic sensitivity discs onto the surface of seeded ISP No. 2 agar plates.
A80577 was resistant to: bacitracin 10 units, cephalothin 30 µg, lincomycin 2 µg, oleandomycin 15 µg, penicillin G 10 units, rifampin 5 µg, and tetracycline 30 µg. It was sensitive to: gentamicin 10 µg, neomycin 30 µg, streptomycin 10 µg, tobramycin 10 µg and vancomycin 30 µg.

CN(C)[C@@H]1C(O)=C(C(N)=O)C(=O)[C@@]2(O)C(O)=C3C(=O)c4c(O)cccc4[C@@](C)(O)[C@H]3C[C@@H]12 [tetracycline]
Resistance to antibiotics (sensitivity disc): resistant
